Measured values taken from patent publication WO2011147834A1 (dated 2011).

What was measured:
Assay in all cases: FACS on B-cells of the respective species
hamster CD19 (hamster) = biological target: hamster CD19 (hamster)
[1] = biological target: chimpanzee CD19 (chimpanzee)
dog CD19 (dog) = biological target: dog CD19 (dog)

binding (hamster CD19 (hamster)): no binding
binding [1]: binds
binding (dog CD19 (dog)): no binding
B1: Mab381 (antibody, V domains shown)
VH: QVQLQQSGAELVRPGSSMKISCKASGYAFSSYWMNWVKQRPGQGLEWIGQIYPGDGDINYSGKFKGKVTLTADKSSSTAYMQLSSLTSEDSAVYFCARTITTVVGYVMDYWGQGTSVTVSS
VL: DIVMTQSHKFMSTSVGDRVSITCKASQDVGTVVAWYQQKPGQSPKLLIYWASTRHTGVPDRFTGSGSGTDFTLTISNVQSEDLADYFCQQYSSYPYTFGGGTKLEIKR
notes: Murine monoclonal antibody purified from hybridoma 8C3

No constants are given. Whether binding was seen depends on the method and setting. For part of these data: Binding can be weak; no strength is given.
